Assay results as given in PubChem BioAssay AID504467 (National Center for Advancing Translational Sciences (NCATS), 2011).
The whole screen tested about 330,000 compounds, of which about 7,700 (2.3%) were called active. The shares of active, inactive and inconclusive entries below differ from those in the screen. Calls come from the whole dose curve; as a rule, active = well fitted inhibition curve with a large enough effect; inconclusive = small, poorly fitted or top-dose-only effect, or effect the other way; inactive = flat fitted curve, though single readings scatter. A potency beside an inconclusive call is a rough fit, not a confirmed value.

experiment: qHTS screen for small molecules that inhibit ELG1-dependent DNA repair in human embryonic kidney (HEK293T) cells expressing luciferase-tagged ELG1; conditions: HEK293T ELG1-luciferase reporter, luminescence, 16 h, DNA damage induced by 5-fluorouridine; series mostly up to 46.1 µM; note: nearly all actives have a fitted effect of over 55% in size
Procedure, shortened: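 Step one: seed 2,000 cells per well. Step two: pin-transfer compound or DMSO alongside 5-fluorouridine. Step three: incubate 16 hr, 37 °C, 5% CO2. Step four: add ONE-Glo, wait 30 min, read luminescence.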
Potency is the fitted concentration of half-maximal effect.

Compound | Potency
CC(=O)c1sc(NC(=O)C(C)(C)C)nc1C | inactive
CCN(C[C@H]1N[C@@](CC)(C(=O)OC)[C@H]2C(=O)N(C)C(=O)[C@@H]12)C(=O)c1ccc(C(C)(C)C)cc1 | inactive
Cc1nc2ncnn2c(C)c1CCC(=O)NCCCN1CCN(c2cccc(Cl)c2)CC1 | inactive
O=[N+]([O-])c1cccnc1NCCNc1ncc(C(F)(F)F)cc1Cl | inconclusive: 18.4 µM [activator, partial curve]
COc1ccc2nc(C)cc(N3CCOCC3)c2c1 | inconclusive: 35.5 µM [inhibitor, single point]
COc1ccc(Cl)cc1Nc1nc(N)c2ccccc2n1 | inconclusive: 20.6 µM [activator, single point]
CCN(CC)CCC(c1cc(OC)c(OC)c(OC)c1)c1c(OC)cc(OC)c2c(-c3ccccc3)cc(=O)oc12 (centres undefined) | inconclusive: 20.6 µM [activator, single point]
N#CC1(NC(=O)COC(=O)/C=C/c2ccc3ccccc3n2)CCCCC1 | inconclusive: 29.1 µM [activator, partial curve, poor fit]
COc1cc(NC(=O)c2ccccc2)c(OC)cc1NC(=O)CSc1[nH]c(=O)cc(C)c1C#N | inactive
Cn1c(=O)[nH]c(=O)c2c1nc(Br)n2CCCCSc1nc2ccccc2o1 | inconclusive: 29.1 µM [inhibitor, single point]
CCn1c(SCC(=O)c2cccs2)nnc1-c1ccco1 | inconclusive: 8.2 µM [activator, partial curve]
CC(C)(C)[C@@H]1C=C(C(=O)NCc2ccccc2)O[C@H](OCc2ccc(CO)cc2)C1 | inconclusive: 29.1 µM [inhibitor, single point]
CCC(C)N(C(=O)CSc1nnc(C)n1C)C1CCS(=O)(=O)C1 (centres undefined) | inactive
CC(Oc1ccc2ccc(=O)oc2c1)C(=O)N1CCOCC1 (centres undefined) | inactive
COc1ccc2c(c1OC)C(=O)OC2N1C(=O)CC[C@H]1C(=O)NCC1CCCO1 (some centres undefined) | inactive
O=C(C1CCCN(Cc2cccc(Cl)c2)C1)N1CCCCC1 (centres undefined) | inactive
CCOC(=O)c1c(S(=O)(=O)N2CCC(C)CC2)c(C)n(C)c1C | inactive
Cc1cc(C(F)F)n2nc(C(=O)Nc3ccc(S(=O)(=O)NC45CC6CC(CC(C6)C4)C5)cc3)nc2n1 | inconclusive: 20.6 µM [inhibitor, partial curve, poor fit]
Cc1cccc(Nc2nc3ccccc3s2)c1C | inconclusive: 6.51 µM [activator, partial curve]
Cc1ccc(CN(Cc2ccccc2)C(=S)NCC(=O)NCc2cccnc2)o1 | inactive
CN1CC(=O)N/C1=N\C(=O)Nc1ccc(O)cc1 | inactive
Cc1cc(C)cc(-n2c(C)cc(/C=N/NC(=O)c3cccc([N+](=O)[O-])c3C)c2C)c1 | inconclusive: 23.1 µM [inhibitor, partial curve, poor fit]
CN(C(=O)c1ccc2nccnc2c1)C1CCCCC1 | inconclusive: 10.3 µM [activator, partial curve, poor fit]

Compound | Potency
CCCCn1c(NC(=O)c2ccccc2Cl)c(C#N)c2nc3ccccc3nc21 | active: 23.1 µM
O=C(NCc1ccc(Cl)cc1)c1cc2ccccc2oc1=O | inconclusive: 17.8 µM [activator, single point]
COc1cccc(N=Nc2c(C)[nH]n(-c3ccccc3)c2=O)c1 | inconclusive: 10.3 µM [activator, partial curve]
Cc1ccc2c(c1)C1CN(C)CCC1N2C(=S)NC(=O)c1ccc(Cl)cc1Cl (centres undefined) | inactive
C(#Cc1ccccc1)C[N+]1(CC#Cc2ccccc2)CCCC1 | inconclusive: 4.61 µM [inhibitor, partial curve]
COc1cc(-c2nc3ccccn3c2N)ccc1O | inactive
COC(=O)C(OC(=O)c1ccccc1)C(C)Br (centres undefined) | inconclusive: 32.6 µM [activator, partial curve, poor fit]
Cc1cc(NC(=O)c2cncc(Br)c2)no1 | inconclusive: 14.6 µM [inhibitor, partial curve, poor fit]
Cn1c(=O)c2c(nc(Oc3ccc4c(c3)OCO4)n2Cc2ccc(Br)cc2)n(C)c1=O | inconclusive: 3.66 µM [inhibitor, single point]
COc1cccc(NC(=O)Nc2ccc3c(c2)CCC3)c1 | inconclusive: 8.2 µM [activator, partial curve]
O=C(CCCCCN1C(=O)c2ccccc2C1=O)Nc1ccc(C(=O)O)cc1 | inactive
CCOC(=O)C1CCCN(C(=S)Nc2ccc(Nc3ccccc3)cc2)C1 (centres undefined) | inconclusive: 5.8 µM [activator, partial curve]
COc1ccc(/C=C/C(=O)Nc2ccc(C)cc2)cc1S(=O)(=O)N1CCOCC1 | inconclusive: 14.6 µM [inhibitor, partial curve]
O=C(Oc1oc(-c2ccco2)nc1C=Nc1ccccc1)c1ccco1 | inconclusive: 5.17 µM [activator, partial curve]
CCCOC(=O)c1ccc(NC(=O)c2c(Cl)ccc(Cl)c2OC)cc1 | inconclusive: 9.2 µM [inhibitor, partial curve, poor fit]
CCO[C@@H]1OC(C(=O)NCc2ccccc2)=C[C@H](c2ccc(Br)cc2)[C@H]1CCCO | inconclusive: 29.1 µM [inhibitor, single point]
O=c1[nH]n2c(=O)c3c([nH]c2c1N=Nc1cccc(C(F)(F)F)c1)CCCC3 | inactive
Cn1c(=O)c2c(-c3ccccc3F)c3c(nc2n(C)c1=O)-c1ccccc1C3O (centres undefined) | inconclusive: 18.4 µM [activator, partial curve]
CN(CCCNC(=O)c1ccccc1F)CCCNC(=O)c1ccccc1F | inactive
CCOc1ccc2nc(N/C(N)=N/C(=S)Nc3cccc(OC)c3)nc(C)c2c1 | inconclusive: 18.3 µM [inhibitor, single point]
COc1cc(/C=N/NC(=O)c2cccc3ccccc23)cc(OC)c1OC | inactive
Brc1ccc(-c2cn3c(n2)CCc2ccc4cccnc4c2-3)cc1 | inconclusive: 29.1 µM [activator, single point]
O=C(Cn1nc(CNc2ccc(Cl)cc2)[n+]2c1CCCCC2)c1ccccc1 | inconclusive: 20.6 µM [activator, partial curve, poor fit]

Compound | Potency
COc1ccc(C(=O)c2sc3nc(-c4ccccc4)ccc3c2N)cc1OC | inactive
Fc1ccc(NC(=S)N2CCCC(c3ccccc3)=N2)cc1 | inactive
COc1ccc(-c2cccc([C@H]3[C@@H]4C=CC[C@@H](C)[C@@H]4C(=O)N3Cc3ccccc3)c2)cc1 | inactive
Cc1cccc(C(=O)N2CCc3cc(-c4csc(NC(=O)CN5CCCC5)n4)ccc32)c1 | inconclusive: 29.1 µM [inhibitor, partial curve, poor fit]
Cn1ccnc1SCC(=O)Nc1ccc(Br)cc1C(F)(F)F | inconclusive: 23.1 µM [activator, single point]
COc1ccc(NC(=O)c2ccc(COc3ccc(C)cc3)o2)cc1 | inactive
CN(Cc1ccccc1)C(=O)c1[nH]cnc1C(=O)NCc1ccc(CNC(=O)OC(C)(C)C)cc1 | inconclusive: 25.9 µM [inhibitor, single point]
Cc1ccc2nc(SCC(=O)N3CCCC3)[nH]c2c1 | inconclusive: 5.17 µM [activator, full curve]
O=C(N/N=C\c1ccc(Br)cc1)c1ccc(Cn2cccn2)o1 | inconclusive: 16.4 µM [activator, partial curve]
CC(=O)Nc1ccc(NC(=O)CCCc2ccccc2)cc1 | inconclusive: 20.6 µM [activator, partial curve, poor fit]
CN(C)CCCNC(=S)N(Cc1cccs1)Cc1cc2cc3c(cc2[nH]c1=O)OCCO3 | inconclusive: 23.1 µM [activator, single point]
N/C(=N\OC(=O)c1ccc2ccccc2c1)c1ccc(Br)cc1 | inconclusive: 25.9 µM [activator, single point]
COc1ccc(OC)c(C2C3=C(COC3=O)Nc3cc4c(cc32)OCO4)c1 (centres undefined) | inactive
CC(=O)Nc1nnc(SCc2ccccc2F)s1 | inconclusive: 14.6 µM [activator, partial curve]
C[C@@H]1CN([C@@H](C)CO)C(=O)c2cc(NC(=O)CCC(F)(F)F)ccc2O[C@H]1CN(C)Cc1ccc(Cl)c(Cl)c1 | inconclusive: 25.9 µM [inhibitor, partial curve]
CCN(CC)Cc1c(C(=O)N/N=C(\C)c2ccncc2)nnn1-c1nonc1N | inactive
CC(C)NC(=S)N/N=C/c1c[nH]c2ccccc12 | inconclusive: 9.2 µM [activator, partial curve, poor fit]
COC(=O)[C@@H]1C[C@H]1[C@@H](NC(=O)c1ccccc1)c1ccccc1 | inconclusive: 29.1 µM [activator, single point]
O=[N+]([O-])c1ccc2c(c1)C(O)n1nc(-c3ccccc3)nc1S2 (centres undefined) | inconclusive: 14.6 µM [activator, partial curve]
Cc1ccc(C=Nc2ccccc2C#N)s1 | inconclusive: 14.6 µM [activator, partial curve, poor fit]
CC(C)COc1ccc(-c2nn(-c3ccccc3)cc2CO)cc1 | inactive
COc1ccc(S(=O)(=O)Nc2cc(OC)c(NC(=O)c3ccco3)cc2OC)cc1 | inconclusive: 18.4 µM [inhibitor, partial curve, poor fit]
CN1C(=O)C(O)(CC(=O)c2cccc(-n3cccc3)c2)c2ccccc21 (centres undefined) | inactive

Not a retest: entries from further up.
Compound | Potency
COc1ccc(-c2cccc([C@H]3[C@@H]4C=CC[C@@H](C)[C@@H]4C(=O)N3Cc3ccccc3)c2)cc1 | inactive
Cc1cccc(C(=O)N2CCc3cc(-c4csc(NC(=O)CN5CCCC5)n4)ccc32)c1 | inconclusive: 29.1 µM [inhibitor, partial curve, poor fit]
Cn1ccnc1SCC(=O)Nc1ccc(Br)cc1C(F)(F)F | inconclusive: 23.1 µM [activator, single point]
COc1ccc(NC(=O)c2ccc(COc3ccc(C)cc3)o2)cc1 | inactive
CN(Cc1ccccc1)C(=O)c1[nH]cnc1C(=O)NCc1ccc(CNC(=O)OC(C)(C)C)cc1 | inconclusive: 25.9 µM [inhibitor, single point]
Cc1ccc2nc(SCC(=O)N3CCCC3)[nH]c2c1 | inconclusive: 5.17 µM [activator, full curve]
O=C(N/N=C\c1ccc(Br)cc1)c1ccc(Cn2cccn2)o1 | inconclusive: 16.4 µM [activator, partial curve]
CC(=O)Nc1ccc(NC(=O)CCCc2ccccc2)cc1 | inconclusive: 20.6 µM [activator, partial curve, poor fit]
CN(C)CCCNC(=S)N(Cc1cccs1)Cc1cc2cc3c(cc2[nH]c1=O)OCCO3 | inconclusive: 23.1 µM [activator, single point]
N/C(=N\OC(=O)c1ccc2ccccc2c1)c1ccc(Br)cc1 | inconclusive: 25.9 µM [activator, single point]
COc1ccc(OC)c(C2C3=C(COC3=O)Nc3cc4c(cc32)OCO4)c1 (centres undefined) | inactive
CC(=O)Nc1nnc(SCc2ccccc2F)s1 | inconclusive: 14.6 µM [activator, partial curve]
C[C@@H]1CN([C@@H](C)CO)C(=O)c2cc(NC(=O)CCC(F)(F)F)ccc2O[C@H]1CN(C)Cc1ccc(Cl)c(Cl)c1 | inconclusive: 25.9 µM [inhibitor, partial curve]
CCN(CC)Cc1c(C(=O)N/N=C(\C)c2ccncc2)nnn1-c1nonc1N | inactive
CC(C)NC(=S)N/N=C/c1c[nH]c2ccccc12 | inconclusive: 9.2 µM [activator, partial curve, poor fit]
COC(=O)[C@@H]1C[C@H]1[C@@H](NC(=O)c1ccccc1)c1ccccc1 | inconclusive: 29.1 µM [activator, single point]
